# Reference: PubChem BioAssay AID504834 (National Center for Advancing Translational Sciences (NCATS), 2011)
# Several values for one entry are separate records, joined by “and”; a condition that tells them apart may be missing. Equal entries are not always repeated. Screen size: about 320,000 compounds; about 22,000 (6.9%) were called active. Inconclusive results, whose numbers are uncertain, are shown with a selection of clear calls. The call rests on the fitted dose curve; in most records, active means well fitted inhibition curve with a large enough effect; inconclusive means small, poorly fitted or top-dose-only effect, or another doubt; inactive means no such curve, though single readings can be large or run the other way. Potencies of inconclusive entries are doubtful fits and often do not repeat. The source holds several records for some structures; these can differ, active in one and inactive in another.
# Assay: Primary qHTS for delayed death inhibitors of the malarial parasite plastid, 96 hour incubation
# Details: P. falciparum luciferase reporter growth; series mostly up to 28.7 µM; activity change, negative = inhibition: at the top concentration
# How it was run: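 Compounds incubated with erythrocytes infected by luciferase-expressing P. falciparum (2% hematocrit, 0.05% parasitemia final) for 96 hours, 37 C in 5% CO2. Growth inhibition scored as decreased luciferase luminescence.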
# On the % scale 0 is the no-effect control and ±100 the full control effect; potency means the concentration at half of the fitted maximal effect.
Compound,"activity change, negative = inhibition",Potency
CCC(=O)N1c2ccc(S(=O)(=O)NCc3ccccc3)cc2CC1C (configuration not stated),inactive: 36.3%,
COc1ccc(Oc2ccc(C(F)(F)F)cc2NC(=O)CC(CC(=O)O)c2ccccc2)cc1 (configuration not stated),,"inconclusive: 14.7 µM [inhibitor, partial curve]"
CC(C)(C)NC[C@H](O)COc1cccc2c1C[C@@H](O)[C@@H](O)C2,,"inconclusive: 1.61 µM [inhibitor, partial curve, poor fit]"
Cc1ccc(C2(C)NC(=O)N(CC(=O)Nc3ccc4c(c3)CCC4)C2=O)cc1 (configuration not stated),,"inconclusive: 0.329 µM [inhibitor, partial curve, poor fit]"
CC1=C(C(=O)OCC2CCCO2)C(c2ccccc2)C2=C(CCCC2=O)N1 (configuration not stated),,"inconclusive: 13.1 µM [inhibitor, single point]"
CCn1c(SCC(=O)NCc2ccc(F)cc2)nc2c(c1=O)SC(C)C2 (configuration not stated),,"inconclusive: 16.5 µM [inhibitor, single point]"
Clc1ccc(Cn2c(CN3CCCC3)nc3ccccc32)cc1,,inactive and active: 4.05 µM
CCOC(=O)N1CCC(N2CCCC(CO)(Cc3cccc(Cl)c3)C2)CC1 (configuration not stated),,"inconclusive: 18.5 µM [inhibitor, single point]"
CCOc1ccc2oc(C(=O)OCC(=O)NC3CC3)c(C)c2c1,inactive: 33%,
COc1cc(Br)c(C(C)NC(=O)c2ccccc2)cc1OC (configuration not stated),,active: 11.7 µM
CC(=O)NC(C)C(=O)OCC(=O)Nc1ccc(Br)cc1 (configuration not stated),,"inconclusive: 18.5 µM [inhibitor, single point]"
Cc1ccccc1NC(=O)COc1cccc2c1CCNC2=O,,"inconclusive: 10.4 µM [inhibitor, partial curve]"
O=C(C1CCCN(S(=O)(=O)Cc2ccccc2)C1)N1CCC(Cc2ccccc2)CC1 (configuration not stated),,"inconclusive: 1.04 µM [inhibitor, partial curve, poor fit]"
O=C(N/N=C/c1ccccc1)c1cc(=O)[nH]c2ccccc12,,"inconclusive: 2.08 µM [inhibitor, full curve, poor fit]"
CCn1ncc([C@@H]2C[C@H]3CN(Cc4ccccc4C)C(=O)[C@]34CCCN24)c1C,inactive: -29.9%,
CCOC(=O)c1c(NC(=O)CCN2CCOCC2)sc(C)c1-c1ccccc1,inactive: 18.9%,
Cc1ccc(NC(=O)CSc2nnc(C3CC3)n2N)cc1S(=O)(=O)N1CCOCC1,inactive: 11.5%,
CCN(CC)CCNC(=S)Nc1ccc2nc(N3CCN(C)CC3)cc(C)c2c1,inactive: -4.02%,
CCN(CC(=O)NCc1ccc(F)cc1)CC(O)COCc1cccc(OC)c1 (configuration not stated),inactive: -29.8%,
O=C1CC(C(=O)N2CCC(N3CCC(C(=O)NC4CC4)CC3)CC2)c2ccccc21 (configuration not stated),,"inconclusive: 13.1 µM [inhibitor, partial curve, poor fit]"
CC(Oc1ccccc1Cl)C(=O)/C=C/N(C)C (configuration not stated),,"inconclusive: 0.0033 µM [inhibitor, full curve, poor fit]"
C/C(=N\NC(=O)c1ccn(C)n1)c1cccc(NC(=O)c2ccc(C)s2)c1,inactive: 57.1%,
O=C(CN(Cc1ccc(F)cc1)C(=O)CCC(=O)Nc1nccs1)NCC1CCCO1 (configuration not stated),,"inconclusive: 11.7 µM [inhibitor, single point]"
Cc1c(C(=O)N2CCCC2)oc2c1-c1[nH]ncc1CC2,,"inconclusive: 18.5 µM [inhibitor, single point]"

# Molecules listed so far with sulfur, in the order listed:
Compound,"activity change, negative = inhibition",Potency
CCC(=O)N1c2ccc(S(=O)(=O)NCc3ccccc3)cc2CC1C (configuration not stated),inactive: 36.3%,
CCn1c(SCC(=O)NCc2ccc(F)cc2)nc2c(c1=O)SC(C)C2 (configuration not stated),,"inconclusive: 16.5 µM [inhibitor, single point]"
O=C(C1CCCN(S(=O)(=O)Cc2ccccc2)C1)N1CCC(Cc2ccccc2)CC1 (configuration not stated),,"inconclusive: 1.04 µM [inhibitor, partial curve, poor fit]"
CCOC(=O)c1c(NC(=O)CCN2CCOCC2)sc(C)c1-c1ccccc1,inactive: 18.9%,
Cc1ccc(NC(=O)CSc2nnc(C3CC3)n2N)cc1S(=O)(=O)N1CCOCC1,inactive: 11.5%,
CCN(CC)CCNC(=S)Nc1ccc2nc(N3CCN(C)CC3)cc(C)c2c1,inactive: -4.02%,
C/C(=N\NC(=O)c1ccn(C)n1)c1cccc(NC(=O)c2ccc(C)s2)c1,inactive: 57.1%,
O=C(CN(Cc1ccc(F)cc1)C(=O)CCC(=O)Nc1nccs1)NCC1CCCO1 (configuration not stated),,"inconclusive: 11.7 µM [inhibitor, single point]"

# More records.

Compound,"activity change, negative = inhibition",Potency
CCc1ccc(C2=NN(CCC(=O)NCC3CCCO3)C(=O)CC2)cc1 (configuration not stated),,"inconclusive: 18.5 µM [inhibitor, single point]"
O=C(CCNS(=O)(=O)c1ccc2c(c1)CCC(=O)N2)Nc1ccc(F)c(F)c1,,"inconclusive: 1.65 µM [inhibitor, partial curve, poor fit]"
C/C(=N\NC(=O)Cc1ccccc1)c1ccc(Br)s1,inactive: 77.8%,
O=C1C=C(c2ccc3c(c2)oc2ccccc23)C[C@@H](c2ccc3c(c2)OCO3)C1,,"inconclusive: 18.5 µM [inhibitor, single point]"
Cc1cc2c(cc1S(=O)(=O)CCC(=O)NC1CCCCC1C)OCC(=O)N2 (configuration not stated),inactive: -1.91%,
Cc1cc(C)cc(NC(=O)C2CCCN(c3nccc(C)n3)C2)c1 (configuration not stated),,"inconclusive: 2.08 µM [inhibitor, partial curve, poor fit]"
COc1ccc(CCNC(=O)CCCCCN2C(=O)[C@@H]3Cc4ccccc4CN3C2=O)cc1OC,,"inconclusive: 5.22 µM [inhibitor, partial curve]"
CC(C)c1ccccc1NC(=S)NC1CCN(Cc2ccccc2)CC1,,"inconclusive: 18.5 µM [inhibitor, single point]"
COc1ccc(S(=O)(=O)NC(C)C(=O)NCc2cccnc2)cc1Cl (configuration not stated),,"inconclusive: 5.22 µM [inhibitor, partial curve]"
CCc1ccc(NC(=O)CSc2nc3c(c(=O)n(C)c(=O)n3C)n2C)cc1,,active: 10.4 µM
COc1ccc(-n2c(-c3ccc(C)cc3)nc3ccccc3c2=O)cc1,,"inconclusive: 0.262 µM [inhibitor, full curve, poor fit]"
O=C(CCC1CCCN(C(=O)CCC(F)(F)F)C1)NCc1ccc(F)c(F)c1 (configuration not stated),inactive: 25.1%,
O=C(CN1C(=O)NC2(CCCC2)C1=O)N1CCN(S(=O)(=O)c2ccccc2[N+](=O)[O-])CC1,inactive: 4.61%,
CCN(CC)CCN(Cc1cc2cc3c(cc2[nH]c1=O)OCO3)C(=S)NCCCOC,,active: 13.1 µM
CCN(CC)S(=O)(=O)c1ccc(/C=C/C(=O)Nc2ccc(Br)cc2F)cc1,,active: 5.22 µM
CCOC(=O)c1cccnc1NC(=O)c1ccccc1,inactive: 17.3%,
Cc1cccc(NC(=S)N(C)C)c1C,inactive: 7.2%,
COc1ccc(C)cc1NC(=O)C(Sc1nncn1C)c1ccccc1 (configuration not stated),inactive: 45.7%,
COc1cccc(C(=O)Nc2ccc(Oc3cccc(C(F)(F)F)c3)nc2)c1,,"inconclusive: 10.4 µM [inhibitor, single point]"
CCc1ccc(OCC(=O)Nc2cccc3c2CCCC3)cc1,inactive: 34%,
O=C1CCCN1C(=O)CSc1nnnn1-c1ccccc1,inactive: -23.7%,
O=C(CCCn1c(=O)[nH]c2ccsc2c1=O)Nc1ccc(F)cc1,inactive: 4.79%,
COC(=O)c1c(O)cc(C(C)(C)C)n(-c2ccccc2)c1=O,inactive: 4.68%,

# An excerpt of these results, bar-delimited:
Compound | activity change, negative = inhibition | Potency
O=C1C=C(c2ccc3c(c2)oc2ccccc23)C[C@@H](c2ccc3c(c2)OCO3)C1 |  | inconclusive: 18.5 µM [inhibitor, single point]
COc1ccc(S(=O)(=O)NC(C)C(=O)NCc2cccnc2)cc1Cl (configuration not stated) |  | inconclusive: 5.22 µM [inhibitor, partial curve]
